{
  "sequences": {"note": "By UniProt entry, the sequences of proteins in these tests, tags left out.", "UniProt P60484": "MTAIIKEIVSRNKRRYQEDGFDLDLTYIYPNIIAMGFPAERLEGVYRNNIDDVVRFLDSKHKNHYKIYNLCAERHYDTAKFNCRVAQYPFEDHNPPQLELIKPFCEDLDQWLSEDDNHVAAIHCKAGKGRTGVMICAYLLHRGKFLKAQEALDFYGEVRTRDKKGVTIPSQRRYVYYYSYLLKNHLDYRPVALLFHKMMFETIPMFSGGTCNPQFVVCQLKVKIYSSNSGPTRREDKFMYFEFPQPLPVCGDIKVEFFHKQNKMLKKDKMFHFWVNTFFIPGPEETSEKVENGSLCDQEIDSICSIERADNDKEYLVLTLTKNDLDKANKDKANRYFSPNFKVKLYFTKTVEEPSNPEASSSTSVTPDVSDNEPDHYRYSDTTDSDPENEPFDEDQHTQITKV"},
  "source": "paper PMC10671598",
  "binders": {"B1": {"name": "myc-RNF138 (protein, UniProt Q8WVD3 1-245)", "chain": "MAEDLSAATSYTEDDFYCPVCQEVLKTPVRTTACQHVFCRKCFLTAMRESGAHCPLCRGNVTRRERACPERALDLENIMRKFSGSCRCCAKQIKFYRMRHHYKSCKKYQDEYGVSSIIPNFQISQDSVGNSNRSETSTSDNTETYQENTSSSGHPTFKCPLCQESNFTRQRLLDHCNSNHLFQIVPVTCPICVSLPWGDPSQITRNFVSHLNQRHQFDYGEFVNLQLDEETQYQTAVEESFQVNI"}},
  "biological_target": "PTEN-Flag (UniProt P60484)",
  "assay": "co-IP; HEK293T transfected with the indicated plasmids for 24 h; lysis buffer 20 mM Tris pH 7.5, 150 mM NaCl, 1% Triton X-100, 1 mM EDTA; Flag beads or the indicated antibody with protein A/G agarose, 4 °C overnight; immunoblot; for PTEN-IRF3 also with myc-RNF138 co-expressed or in RNF138-KO cells",
  "note": "Results are given in words; binding and its absence hold for the method and conditions named. Binding seen in cells or lysates may run through a third protein. Some results given as binding are weak or reduced against the parent protein; the word gives no strength. Where a sequence is shown, tags or fusion partners need not be part of it.",
  "data": [
    {"binder": "B1", "values": [
      {"measurement": "binding", "result": "binds"}
    ]}
  ]
}
